Results as given in article PMC6347638.
These are yes or no findings as the source states them, for the method shown. Some binding calls cover weakened binding; strength is not graded here. Sequences can lack the tags named with a protein.

Assays:
His-p53 = His-p53 (UniProt P04637); test: condition: 0.5 μg His-SUMO-SETD3 on 2 μg coated His-p53; ELISA; plates coated with 2 μg His-p53 or His-SUMO-FoxM1 (1 h, room temperature), blocked with 3% BSA in PBST, covered with 0.5 μg His-SUMO-SETD3 for 1 h; detected with anti-SETD3 and HRP secondary, absorbance at 450 nm; both purified
His-SUMO FoxM1 = target: T1, His-SUMO FoxM1 (UniProt Q08050); test: ELISA; plates coated with 2 μg His-p53 or His-SUMO-FoxM1 (1 h, room temperature), blocked with 3% BSA in PBST, covered with 0.5 μg His-SUMO-SETD3 for 1 h; detected with anti-SETD3 and HRP secondary, absorbance at 450 nm; both purified
T1 sequence: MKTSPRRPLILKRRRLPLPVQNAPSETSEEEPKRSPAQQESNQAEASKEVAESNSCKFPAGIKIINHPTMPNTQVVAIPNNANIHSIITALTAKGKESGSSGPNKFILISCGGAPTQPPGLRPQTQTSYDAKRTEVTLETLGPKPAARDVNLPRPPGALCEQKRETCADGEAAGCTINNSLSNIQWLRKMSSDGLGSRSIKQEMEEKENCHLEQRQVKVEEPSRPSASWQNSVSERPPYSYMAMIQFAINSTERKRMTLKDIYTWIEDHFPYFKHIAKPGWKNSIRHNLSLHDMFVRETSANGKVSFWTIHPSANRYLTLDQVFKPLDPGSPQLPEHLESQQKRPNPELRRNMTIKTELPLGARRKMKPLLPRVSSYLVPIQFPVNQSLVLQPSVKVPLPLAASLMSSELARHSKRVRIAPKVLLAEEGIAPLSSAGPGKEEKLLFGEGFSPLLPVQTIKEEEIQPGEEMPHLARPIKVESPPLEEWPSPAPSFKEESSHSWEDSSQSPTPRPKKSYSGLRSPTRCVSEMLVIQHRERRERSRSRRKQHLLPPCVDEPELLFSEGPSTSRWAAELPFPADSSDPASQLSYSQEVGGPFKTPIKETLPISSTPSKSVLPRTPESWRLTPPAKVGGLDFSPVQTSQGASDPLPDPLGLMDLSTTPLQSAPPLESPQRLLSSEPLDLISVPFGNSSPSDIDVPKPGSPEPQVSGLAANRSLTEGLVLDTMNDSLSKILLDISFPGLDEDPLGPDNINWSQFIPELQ

binding (His-p53): no binding | binding (His-SUMO FoxM1): binds
B1: His-SUMO SETD3 (enzyme, UniProt Q86TU7 1-594)
chain: MGKKSRVKTQKSGTGATATVSPKEILNLTSELLQKCSSPAPGPGKEWEEYVQIRTLVEKIRKKQKGLSVTFDGKREDYFPDLMKWASENGASVEGFEMVNFKEEGFGLRATRDIKAEELFLWVPRKLLMTVESAKNSVLGPLYSQDRILQAMGNIALAFHLLCERASPNSFWQPYIQTLPSEYDTPLYFEEDEVRYLQSTQAIHDVFSQYKNTARQYAYFYKVIQTHPHANKLPLKDSFTYEDYRWAVSSVMTRQNQIPTEDGSRVTLALIPLWDMCNHTNGLITTGYNLEDDRCECVALQDFRAGEQIYIFYGTRSNAEFVIHSGFFFDNNSHDRVKIKLGVSKSDRLYAMKAEVLARAGIPTSSVFALHFTEPPISAQLLAFLRVFCMTEEELKEHLLGDSAIDRIFTLGNSEFPVSWDNEVKLWTFLEDRASLLLKTYKTTIEEDKSVLKNHDLSVRAKMAIKLRLGEKEILEKAVKSAAVNREYYRQQMEEKAPLPKYEESNLGLLESSVGDSRLPLVLRNLEEEAGVQDALNIREAISKAKATENGLVNGENSIPNGTRSENESLNQESKRAVEDAKGSSSDSTAGVKE
